From US20020177166A1, “Binding motif of a receptor” (MEDVET SCIENCE PTY.LTD., priority 2000, published 2002)
pKd: −log10 of the molar value. For some of these results: Not every detail of the peptide structures is certain; ends, links or a residue may be inferred. For some of these results: At least one compound was matched to its structure with a doubt left. Square brackets hold non-standard residues; d marks the D form. Ends that are not written are not given here. Peptide text beside a SMILES is read from it. pS = N[C@@H](COP(=O)(O)O)C(=O)O

Tests used:
CTL-EN cells = assay: CTL-EN cell viability, trypan blue exclusion; type: cell-based; settings: CTL-EN wtβc, IL-3 and 5 mM LY294002, 4 days
PI 3-kinase = PI 3-kinase lipid kinase assay on anti-phosphotyrosine immunoprecipitates of CTL-EN cells; type: cell-based; settings: CTL-EN wtβc
[1] = tested on: Ser585 phosphorylation of βc in CTL-EN cells; assay: Ser585 phosphorylation of βc in CTL-EN cells expressing IL-3Ra and wtβc, immunoblot; type: cell-based; settings: 50 ng/ml IL-3, 50 μM forskolin or 100 μM dibutyryl cAMP
Text: The βc was immunoprecipitated and then subjected to immunoblot analysis using the anti-phospho-Ser585βc antibody. […] Immunoprecipitates were electrophoresed on a polyacrylamide gel and the amount of radiolabelled receptor immunoprecipitated was quantified using a phosphorImager.
After various treatments, cells were lysed, βc was immunoprecipitated, and subjected to immunoblot analysis with the anti-phospho-Ser585 antibody.

[2] = target: T1, βc association with 14-3-3ζ (Homo sapiens, UniProt P63104); assay: GST-14-3-3-sepharose precipitation of βc from transfected HEK293T lysates with peptide competition; type: binding; settings: for inhibition of βc association with GST-14-3-3 in pull-down: peptides 100 uM
T1 construct: expressed in transfected cells; host or cells: HEK293T (βc)
T1 sequence (P63104 1-245): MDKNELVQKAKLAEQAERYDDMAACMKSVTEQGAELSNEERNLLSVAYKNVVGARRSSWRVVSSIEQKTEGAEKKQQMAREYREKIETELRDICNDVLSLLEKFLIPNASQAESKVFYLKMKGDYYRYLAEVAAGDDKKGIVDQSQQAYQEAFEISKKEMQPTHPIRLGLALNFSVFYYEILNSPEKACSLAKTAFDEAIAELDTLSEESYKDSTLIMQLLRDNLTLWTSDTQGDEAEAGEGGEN
Method: Lysates of HEK293T cells transfected with βc were immunoprecipitated with GST-14-3-3-sepharose in the absence or in the presence of chemically-synthesised peptides (100 uM) containing a βc sequence ([…]) or a Raf-1 sequence ([…]). In the phosphorylated peptides the relevant phosphorylated serine is underlined. The experiment was performed on 7.5% SDS-PAGE under reducing conditions. The presence of βc in the precipitation experiment was determined by Western blotting with anti-βc antibody (MAb 1C1).
Lysates of HEK293T cells transfected with βc were precipitated with GST-14-3-3-sepharose in the absence or in the presence of various concentrations of chemically-synthesised peptides. […] The appropriate phosphorylated serine in each peptide is underlined. The experiment was performed on 7.5% SDS-PAGE under reducing conditions. The presence of βc in the immunoprecipitates was determined by Western blotting with anti-βc antibody (MAb 1C1).
Cells were lysed in lysis buffer for 30 mins at 4° C. followed by centrifugation of the lysate for 15 mins at 12,000 g 4° C. […] Samples were boiled for 5 mins in SDS sample load buffer in the presence of 2-mercaptoethanol before separating precipitated proteins by SDS-PAGE.
Cell lysates were precipitated or immunoprecipitated in the presence of various concentrations of the following peptides: βc peptide sequence […] either non phosphorylated or serine phosphorylated and a scrambled peptide […]. Raf1 peptides corresponding to the sequence […] were also used and were either non phosphorylated or serine phosphorylated. The corresponding phosphorylated serine in each peptide is underlined. Peptides were synthesised by Chiron Mimotopes, Melbourne, Australia. The presence of βc in either the immunoprecipitation or precipitation experiment was determined by Western blotting with anti-βc antibody (MAb 1C1).

[3] = tested on: anti-phospho-585Ser recognition of βc; assay: Western blot of immunoprecipitated βc with peptide-preincubated anti-phospho-585Serβc antibody; type: binding, human; settings: 100 fold molar excess of peptide
Method: Lysates of HEK293T cells transfected with wild type βc were immunoprecipitated with anti-βc antibody (MAb 8E4). Immunoprecipitates were run on 7.5% SDS-PAGE under reducing conditions. […] M1 cells expressing GM-CSFRa and βc were either untreated (−) or stimulated with GM-CSF (2 ng/ml) for 30 seconds (+). Lysates of the M1 cells were immunoprecipitated with anti-βc antibody (MAb 8E4) and the immunoprecipitates run on 10% SDS-PAGE under reducing conditions.
These possibilities were initially addressed using ^32P-orthophosphate labelled HEK 293T cells transfected with the GM-CSF receptor (α and βc subunits). These cells were stimulated with GM-CSF, total βc was immunoprecipitated and examined for ^32P-labelling. This is most likely due to the presence of sixty serine and threonine residues in the intracellular region of βc, some of which may be constitutively phosphorylated.

[4] = tested on: interaction of hisβc445-881 with p85 and 14-3-3; assay: PKA-phosphorylated hisβc445-881 Sepharose pull-down from COS-7 lysates with peptide competition; type: binding; settings: for effect on interaction of p85 with hisβc445-881: 200 mM competing peptides, 1 hour at 4° C.; for effect on pull-down of p85 and 14-3-3 by Hisβc445-881: FIG. 22C
Method: (a) analysis of PI 3-kinase activity. […] Cells were then lysed and phospho-tyrosine containing proteins were immunoprecipitated (2×10^7 cells/IP) using the 4G10 antibody. Immunoprecipitates were washed in 1× PI 3-kinase buffer (20 mM HEPES, pH 7.5, 5 mM MgCl2, 1 mM EGTA) and PI 3-kinase activity was analysed in a lipid kinase assay using phosphatidyl inositol and g^32PATP as substrates as described in the “Materials and Methods”. Autoradiogram of TLC plate is shown with ^32P-labelled phosphatidyl inositols (PIP) and the origin indicated. […] (b) CTL-EN cells were also examined for the association of βc with p85. […] Cells were then lysed and the βc immunoprecipitated (2×10^7 cells/IP) with the 1C1 anti-βc specific mAb. Immunoprecipitates were then subjected to SDS-PAGE, transferred to nitrocellulose and immunoblotted with anti-p85 (1 mg/ml) followed by detection with HRP-conjugated anti-rabbit IgG antibody and ECL. The filters were then stripped, probed with anti-SHP2 (1 mg/ml), stripped again and finally probed with 1C1 anti-βc (2 mg/ml). […] The association of hisβc445-881 with p85 was also assessed in pull-down experiments together with peptide competition. (c) List of peptides used in the hisbβc445-881 pull-down experiment. S refers to a phospho-serine residue. (d) Association of p85 with recombinant hisβc445-881. hisβc445-881 (10 mg) coupled to Sepharose resin and phosphorylated on Ser585 with PKA (lanes 1-5) or Sepharose alone (lane 6) was incubated with COS-7 pre-cleared lysates in the absence (lane 1) or in the presence of 200 mM competing peptides (lane 2, scrambled. Lane 3, Ser585Ala. Lane 4, non-phospho-Ser585. lane 5, phospho-Ser585) for 1 hour at 4° C. The resin was then washed extensively, subjected to SDS-PAGE and transferred to a nitrocellulose filter. The filter was immunoblotted with anti-p85 antibodies (1 mg/ml) followed by detection with HRP-conjugated anti-rabbit IgG antibody and ECL.
To further examine the possibility that 14-3-3 could couple βc to PI 3-kinase, we performed pull-down experiments using recombinant intracellular-portion of βc (Hisβc445-881). […] We have also shown that PKA can efficiently phosphorylate Ser585 of Hisβc445-881 in vitro (FIGS. 21A, B and C). We therefore examined the ability of Hisβc445-881 coupled to Sepharose and phosphorylated on Ser585 by PKA to precipitate both p85 and 14-3-3 from COS-7 cell lysates.

14-3-3z = target: T2, 14-3-3z (Homo sapiens, UniProt P63104); assay: Binding of 125I-labeled 14-3-3z to synthetic peptides coated on microtiter wells, Scatchard analysis; settings: read-out: affinity of binding to 14-3-3 (Scatchard analysis); direct binding of 125I-labeled 14-3-3z, 22° C., 2 h
T2 sequence (P63104 1-245): T1 sequence (P63104 1-245)

PKA = target: T3, PKA (Homo sapiens, UniProt P17612); assay: In vitro kinase assay, PKA phosphorylation of hisβc445-881 with peptide competition; type: biochemical; settings: 200 mM peptides
T3 construct: substrate Hisβc445-881 expressed in bacteria
Method: Peptide competitions were also performed using 200 mM peptides containing the indicated sequences. b) The ability of PKA and CKII to phosphorylate Ser585 of hisβc445-881 was examined by immunoblot analysis using the anti-phospho-Ser585βc antibodies. Filters were probed firstly with anti-phospho-Ser585βc antibodies (top panel). […] Cells were then lysed and βc immunoprecipitated with 1C1. Ser585 phosphorylation of βc was determined using the anti-phospho-Ser585 antibodies (top panel). The filter was then stripped and re-probed with anti βc 1C1 antibodies.
In an effort to identify the kinase involved in the phosphorylation of Ser585, we firstly examined the ability of several kinases to phosphorylate the purified recombinant intracellular portion of βc (hisβc445-881) in vitro. Ser585 of βc lies within a SXXD motif which is known to be a CKII consensus phosphorylation site. Ser585 also lies within a RS motif which is a possible, but poor, PKA phosphorylation site. […] Additional bands for the PKA kinase reactions were evident due to the autocatalytic activity of PKA. […] In this experiment, the non-phospho-HSRSLP peptide is likely to act as a competitive substrate for phosphorylation of Ser585 of hisβc445-881 by PKA.
In an effort to identify the kinase involved in the phosphorylation of Ser585, the ability of several kinases to phosphorylate the recombinant intracellular portion (amino acids 445-881) of βc (Hisβc445-881) in vitro was examined. […] Additional bands for the PKA kinase reactions were evident due to the autocatalytic activity of PKA.

| Compound | viability in the presence of IL-3 and inhibitor (CTL-EN cells) | effect on IL-3 stimulated PI 3-kinase activity (PI 3-kinase) | Ser585 phosphorylation of βc after stimulation [1] | inhibition of βc association with GST-14-3-3 in pull-down [2] | inhibition of βc association with 14-3-3, dose dependence and specificity ([2]; various concentrations of peptides (FIG. 8)) | inhibition of anti-phospho-585Ser recognition of βc [3] | effect on interaction of p85 with hisβc445-881 [4] | effect on pull-down of p85 and 14-3-3 by Hisβc445-881 [4] | pKd (14-3-3z) | effect on phosphorylation of hisβc445-881 by PKA (PKA) | effect on phosphorylation of hisβc445-881 by PKA (PKA; listed as non-phospho-HSRSLP peptide) |
| --- | --- | --- | --- | --- | --- | --- | --- | --- | --- | --- | --- |
| O=c1cc(N2CCOCC2)oc2c(-c3ccccc3)cccc12 [LY294002] | lost viability | blocked | – | – | – | – | – | – | – | – | – |
| C=C[C@@]1(C)CC(=O)[C@]2(O)[C@@]3(C)[C@@H](O)CCC(C)(C)[C@@H]3[C@H](O)[C@H](OC(C)=O)[C@@]2(C)O1 [forskolin] | – | – | increased Ser585 phosphorylation | – | – | – | – | – | – | – | – |
| CC[C@H](C)[C@H](NC(=O)[C@H](CC(=O)O)NC(=O)[C@@H]1CCCN1C(=O)[C@H](CC(C)C)NC(=O)[C@H](COP(=O)(O)O)NC(=O)[C@H](CCCNC(=N)N)NC(=O)[C@H](CO)NC(=O)[C@H](Cc1c[nH]cn1)NC(=O)[C@@H]1CCCN1C(=O)[C@@H]1CCCN1C(=O)CNC(=O)[C@H](CC(C)C)NC(=O)[C@@H](N)CS)C(=O)N[C@@H](CC(C)C)C(=O)NCC(=O)O [phospho-Ser585 peptide] (H-CLGPPHSR[pS]LPDILG-OH; N-terminus and C-terminus assumed) | – | – | – | inhibited βc association with GST-14-3-3 | dose-dependent and specific | able to inhibit anti-phospho-^585Ser recognition of βc | markedly reduced | markedly reduced | ~6.82 | did not | – |
| CLGPPHSRSLPDILG [non-phospho-Ser585 peptide] | – | – | – | no inhibition of association was observed | – | did not | had no apparent effect on this interaction | able to pull-down p85 and 14-3-3 in the presence of | – | reduced the phosphorylation of Hisβc445-881 by PKA | reduced the phosphorylation of hisβc445-881 by PKA |
